Reference: the supplement of paper PMC8426693
The list shows a part of the results.

What was measured:
Experiment in all cases: NMR binding call after quantification (hit when 2 of 3 NMR criteria are met) (binary (1 = binding, 0 = not binding)); higher = binding
Details in all cases: RNA concentration 10 µM; fragment concentration 200 µM; 293 K
SARS-CoV-2 5'-UTR RNA = test system: SARS-CoV-2 5'-UTR RNA
SARS-CoV-2 5_SL1 RNA = test system: SARS-CoV-2 5_SL1 RNA
SARS-CoV-2 5_SL1234 RNA = test system: SARS-CoV-2 5_SL1234 RNA
SARS-CoV-2 5_SL2+3 RNA = test system: SARS-CoV-2 5_SL2+3 RNA
SARS-CoV-2 5_SL4 RNA = test system: SARS-CoV-2 5_SL4 RNA
SARS-CoV-2 5_SL5 RNA = test system: SARS-CoV-2 5_SL5 RNA
SARS-CoV-2 5_SL5a RNA = test system: SARS-CoV-2 5_SL5a RNA
SARS-CoV-2 5_SL5b+c RNA = test system: SARS-CoV-2 5_SL5b+c RNA
SARS-CoV-2 5_SL5stem RNA = test system: SARS-CoV-2 5_SL5stem RNA
SARS-CoV-2 5_SL6 RNA = test system: SARS-CoV-2 5_SL6 RNA

Measured: NMR binding call

Cn1ccc(C(=O)Nc2cccc(C(=O)O)c2)n1
0: all assays above

CCn1cc(CCO)cn1
0: all assays above

CC1C(O)CCCN1Cc1ccccc1 (stereo not given)
0: all assays above

OC1CCN(Cc2ccsc2)CC1
0: all assays above

CNCC1COc2ccccc2O1 (stereo not given)
0: all assays above

Oc1cccc(CN2CCSCC2)c1
0: all assays above

CCNC(=O)Nc1cc(C)on1
0: all assays above

CC(C)Oc1ccc(-c2csc(N)n2)cc1
0: all assays above

CC(=O)NCC1CNCCO1 (stereo not given)
0: all assays above

CNCc1cccc(OC)n1
0: all assays above

CS(=O)(=O)N1CCCC1CN (stereo not given)
0: all assays above

CC(C)c1ccc(C(=O)Nc2ccccn2)cc1
0: all assays above

CNCc1ccncc1
0: all assays above
